Experimental findings from patent publication US7601702B2, “Dutpase Inhibitors” (Medivir AB, priority 2004, dated 2009) are described below.

In brackets after ≈: the same amount, converted by molar mass.

The test system of this assay is Trypanosoma cruzi Tulahuen C2C4 strain. Nature of the assay: Trypanosoma cruzi whole cell assay. Type of assay: cell-based. To be noted: L6. As for the experimental part:
The Trypanosoma cruzi Tulahuen C2C4 strain, containing the -galactosidase (Lac Z) gene, is used. The plasmid construct by Dr. S. Reed was obtained from Dr. F. Buckner, Seattle, as epimastigotes in LIT medium.
The infective amastigote and trypomastigote stages are cultivated in L-6 cells (rat skeletal myoblast cell line) in RPMI 1640 supplemented with 2 mM L-glutamine and 10% heat-activated foetal bovine serum in 12.5 cm^2 tissue culture flasks. Amastigotes develop intracellularly, differentiate into trypomastigotes and leave the host cell. These trypomastigotes infect new L-6 cells and are the stages used to initiate an infection in the assay. All cultures and assays are conducted at 37° C. under an atmosphere of 5% CO2 in air.
The stocks are kept at −20° C. For the assays, the compound is further diluted to the appropriate concentration using complete medium.
Assays are performed in sterile 96-well microtiter plates, each well containing 100 μl medium with 2×10^3 L-6 cells. […]
Then the substrate CPRG/Nonidet (50 l) is added to all wells. A colour reaction will become visible within 2-6 hours and can be read photometrically at 540 nm. Data are transferred into a graphic programme (e.g. EXCEL), sigmoidal inhibition curves determined and IC50 values calculated.

The term IC50 denotes the midpoint of a concentration-inhibition curve. Low values mean greater potency in that assay, high ones weaker potency in that assay. Molecule `O=C(Cn1ccnc1[N+](=O)[O-])NCc1ccccc1` [Benznidazole] came in with a half-inhibitory concentration (IC50) of 0.34 µg/mL (≈ 1.31 µM).
